The structures given here were assigned with low confidence; some may be wrong.
Biological target: human GPR84 receptor (Homo sapiens, UniProt Q9NQS5)
Test: Gαi biosensor BRET assay in HEK293 cells (antagonism of ZQ-16)
Conditions: for IC50: read-out: BRET IC50, HEK293 cells, antagonism of 200 nmol/L ZQ-16

Amino acid sequences for entries named in this document (tags omitted).
UniProt Q9NQS5, whole entry: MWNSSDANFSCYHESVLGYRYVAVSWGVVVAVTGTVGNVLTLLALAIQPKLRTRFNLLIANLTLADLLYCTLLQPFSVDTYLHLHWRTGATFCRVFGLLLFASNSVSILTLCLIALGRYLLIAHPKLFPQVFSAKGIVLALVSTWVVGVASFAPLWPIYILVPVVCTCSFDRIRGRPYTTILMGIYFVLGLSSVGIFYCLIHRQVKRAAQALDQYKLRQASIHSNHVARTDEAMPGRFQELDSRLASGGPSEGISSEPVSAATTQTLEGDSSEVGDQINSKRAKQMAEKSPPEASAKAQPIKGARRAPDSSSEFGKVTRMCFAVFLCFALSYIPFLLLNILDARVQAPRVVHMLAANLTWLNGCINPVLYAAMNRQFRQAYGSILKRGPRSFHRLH

Row | SMILES | IC50 [nM] | % Inhibition (single concentration 25 μM (designated I))
1 | Cc1ccc(-c2ccc(-c3nnn(CC4CCCCO4)c3C)cc2)cn1 (stereo not drawn) | > 3000 | *** (percent inhibition of >50-≤75)
2 | CC(C)c1cc(N2CC(C)(C)C2)ccc1-c1cn(CC2CCCCO2)nn1 (stereo not drawn) | 300 to 1000 | 
